According to PMC5744064, “Regulation of Class A β-Lactamase CzoA by CzoR and IscR in Comamonas testosteroni S44” (Frontiers in Microbiology, 2017):
Construct, isoform or probe ends are uncertain for at least one entry.

Target: IscR (Fe-S cluster assembly regulator) (Comamonas testosteroni S44) (UniProt A0A0L7MDB4)
Assay: EMSA
Conditions: 1.8 pmol probe; recombinant protein; residues 1-178; protein details: His6 (pET-28a(+)); label: 5'-FAM (EMSA-CzoR-F); probe letters rebuilt from the primers and the genome

Sequence: CAAGGCGTTCAGTGGTAGCTGCATATCTCAATCAAGATAAAAGTTTTTCTAATGGATCGTGTCAATTATTACTGCTGGTTCGTAGGGATCTACCGATTTATGCTTCAAACCATGGCAGTTAACCAAAAGAGGATCTTATGCAACGACGCAGCATGCTGACAACAGGACTGGCCTTGGGTCTGGGGGCCTGGGGACTGAGCGGCTGTGCTTTTATCTCCAAGCAGCAAGCCGCAGCAGCGAGAACATTGAGCGACGAGT (double strand) [czoR-czoA intergenic region / PczoA, 259 bp]
- binding result: binds
